In paper PMC10989989, “The archaeal KEOPS complex possesses a functional Gon7 homolog and has an essential function independent of the cellular t^6A modification level” (mLife, 2023):

Tested on: TkoCgi121 I75E (Thermococcus kodakarensis)
Assay: EMSA
Settings: binding only at 20 uM, likely nonspecific, 50 mM Tris-HCl pH 8.0, 100 uM ATP, 37 C 30 min (45 min for the 45 nt ssDNA), 10 nM FAM probe (1 nM in Fig 6B), 8% native PAGE in 0.5x TBE at 4 C, recombinant protein, protein details: 6xHis, label: 5'-FAM

“CAGTATGCTGCGTGAGGAATGATCCCATGACGTAACCACAGTGCC (double strand) [FAM-dsDNA 45 bp with two CCA motifs]”: binds more weakly.
“CAGTATGCTGCGTGAGGAATGATCCCATGACGTAACCACAGTGCC [FAM-ssDNA 45 nt with two CCA motifs]”: binds more weakly (single-stranded DNA).

For at least one entry, the source does not settle the construct or the ends of the probe. Weaker means in comparison with the reference protein, sequence or condition of that experiment.
